Source: the supplement of paper PMC10849652
Some of the results follow.

The chains behind the UniProt entries cited, without tags or fusion partners. Where a name states a change or a piece, a line headed by the entry shows the natural chain unless it says otherwise.
UniProt P26583: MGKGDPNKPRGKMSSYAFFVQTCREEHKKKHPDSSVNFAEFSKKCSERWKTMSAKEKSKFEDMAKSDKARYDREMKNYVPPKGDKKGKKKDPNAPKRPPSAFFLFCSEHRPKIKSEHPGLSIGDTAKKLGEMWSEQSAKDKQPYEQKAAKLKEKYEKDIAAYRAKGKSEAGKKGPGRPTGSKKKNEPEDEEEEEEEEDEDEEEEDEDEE
UniProt Q2TB90: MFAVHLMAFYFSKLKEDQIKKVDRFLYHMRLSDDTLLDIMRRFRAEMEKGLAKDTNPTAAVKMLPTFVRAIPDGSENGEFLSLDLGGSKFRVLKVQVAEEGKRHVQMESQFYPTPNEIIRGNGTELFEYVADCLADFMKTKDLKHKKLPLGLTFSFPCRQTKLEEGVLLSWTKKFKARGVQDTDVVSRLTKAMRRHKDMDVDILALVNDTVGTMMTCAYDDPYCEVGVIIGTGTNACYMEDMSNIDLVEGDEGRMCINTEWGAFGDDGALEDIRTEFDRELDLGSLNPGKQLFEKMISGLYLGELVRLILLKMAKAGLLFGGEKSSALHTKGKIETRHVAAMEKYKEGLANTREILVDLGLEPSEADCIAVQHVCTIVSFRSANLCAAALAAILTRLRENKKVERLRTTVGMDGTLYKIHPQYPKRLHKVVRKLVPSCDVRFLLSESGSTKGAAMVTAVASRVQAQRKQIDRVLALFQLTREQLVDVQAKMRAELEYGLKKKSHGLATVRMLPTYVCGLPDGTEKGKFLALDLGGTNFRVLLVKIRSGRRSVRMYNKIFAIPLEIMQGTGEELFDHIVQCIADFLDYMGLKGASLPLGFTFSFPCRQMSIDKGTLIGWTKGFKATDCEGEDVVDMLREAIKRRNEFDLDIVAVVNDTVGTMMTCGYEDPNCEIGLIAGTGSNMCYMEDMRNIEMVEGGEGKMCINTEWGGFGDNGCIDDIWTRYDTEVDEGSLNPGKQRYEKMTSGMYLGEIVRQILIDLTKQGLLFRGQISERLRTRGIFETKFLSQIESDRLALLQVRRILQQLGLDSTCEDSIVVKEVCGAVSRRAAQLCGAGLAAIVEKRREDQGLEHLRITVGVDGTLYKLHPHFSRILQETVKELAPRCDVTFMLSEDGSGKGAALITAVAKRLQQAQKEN
UniProt P51659: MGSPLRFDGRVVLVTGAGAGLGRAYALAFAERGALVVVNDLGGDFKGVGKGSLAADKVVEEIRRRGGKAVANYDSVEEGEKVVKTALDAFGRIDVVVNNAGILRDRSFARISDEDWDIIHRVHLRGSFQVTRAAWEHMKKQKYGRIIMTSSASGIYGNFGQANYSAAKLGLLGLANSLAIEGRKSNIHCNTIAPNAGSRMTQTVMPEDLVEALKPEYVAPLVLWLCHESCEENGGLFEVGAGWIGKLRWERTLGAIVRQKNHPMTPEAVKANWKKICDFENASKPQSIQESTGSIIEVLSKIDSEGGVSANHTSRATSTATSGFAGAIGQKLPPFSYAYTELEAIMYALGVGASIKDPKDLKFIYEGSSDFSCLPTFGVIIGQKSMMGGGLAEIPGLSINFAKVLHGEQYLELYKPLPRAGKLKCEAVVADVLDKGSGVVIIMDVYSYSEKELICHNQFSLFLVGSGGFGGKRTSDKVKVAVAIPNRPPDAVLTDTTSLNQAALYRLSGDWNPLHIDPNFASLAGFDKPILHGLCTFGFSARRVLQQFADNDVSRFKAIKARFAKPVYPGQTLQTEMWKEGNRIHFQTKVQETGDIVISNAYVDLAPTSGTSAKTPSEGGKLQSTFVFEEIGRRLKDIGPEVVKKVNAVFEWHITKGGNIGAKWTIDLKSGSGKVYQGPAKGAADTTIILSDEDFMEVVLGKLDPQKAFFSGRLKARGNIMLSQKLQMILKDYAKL
UniProt Q92506: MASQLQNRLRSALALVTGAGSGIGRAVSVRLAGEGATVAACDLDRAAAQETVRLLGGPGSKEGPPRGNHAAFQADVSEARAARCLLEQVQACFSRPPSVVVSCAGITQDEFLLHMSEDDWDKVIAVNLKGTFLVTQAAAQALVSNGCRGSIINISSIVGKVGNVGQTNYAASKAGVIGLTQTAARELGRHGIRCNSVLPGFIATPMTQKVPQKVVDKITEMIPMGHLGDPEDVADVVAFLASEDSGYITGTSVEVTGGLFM
UniProt P09651: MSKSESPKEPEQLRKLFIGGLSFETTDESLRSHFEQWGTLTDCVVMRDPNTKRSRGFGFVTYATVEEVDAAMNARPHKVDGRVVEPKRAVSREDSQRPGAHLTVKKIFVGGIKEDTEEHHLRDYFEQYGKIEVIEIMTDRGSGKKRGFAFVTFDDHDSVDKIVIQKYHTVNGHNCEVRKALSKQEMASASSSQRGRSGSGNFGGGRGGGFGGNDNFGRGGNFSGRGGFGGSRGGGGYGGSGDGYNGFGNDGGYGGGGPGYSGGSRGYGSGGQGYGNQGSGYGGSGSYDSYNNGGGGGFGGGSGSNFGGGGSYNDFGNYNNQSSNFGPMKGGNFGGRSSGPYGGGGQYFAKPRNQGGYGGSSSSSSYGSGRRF
UniProt Q99714: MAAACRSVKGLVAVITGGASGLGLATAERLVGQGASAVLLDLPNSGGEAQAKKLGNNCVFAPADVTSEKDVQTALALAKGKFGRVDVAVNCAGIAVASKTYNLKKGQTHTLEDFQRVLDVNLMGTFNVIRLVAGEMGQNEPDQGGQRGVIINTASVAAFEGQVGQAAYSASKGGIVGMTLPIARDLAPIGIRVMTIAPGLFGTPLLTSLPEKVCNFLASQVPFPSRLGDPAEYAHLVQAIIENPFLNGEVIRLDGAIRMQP
UniProt Q15651: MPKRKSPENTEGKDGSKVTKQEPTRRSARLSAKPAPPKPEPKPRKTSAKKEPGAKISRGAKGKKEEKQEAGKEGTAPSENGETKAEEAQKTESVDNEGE
UniProt P30519: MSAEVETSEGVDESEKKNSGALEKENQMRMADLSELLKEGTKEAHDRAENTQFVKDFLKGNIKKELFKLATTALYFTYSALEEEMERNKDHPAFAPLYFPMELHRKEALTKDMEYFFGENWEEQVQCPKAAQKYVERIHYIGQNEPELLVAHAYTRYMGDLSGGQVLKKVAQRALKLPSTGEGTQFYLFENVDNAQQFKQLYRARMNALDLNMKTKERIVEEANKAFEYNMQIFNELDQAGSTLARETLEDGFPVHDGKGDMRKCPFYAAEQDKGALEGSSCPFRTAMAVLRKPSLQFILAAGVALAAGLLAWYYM
UniProt Q9BX68: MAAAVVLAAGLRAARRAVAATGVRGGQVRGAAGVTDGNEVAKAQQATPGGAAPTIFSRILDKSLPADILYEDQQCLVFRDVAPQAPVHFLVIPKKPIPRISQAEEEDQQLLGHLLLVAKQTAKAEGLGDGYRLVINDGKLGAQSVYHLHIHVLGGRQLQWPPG
UniProt Q7LGA3: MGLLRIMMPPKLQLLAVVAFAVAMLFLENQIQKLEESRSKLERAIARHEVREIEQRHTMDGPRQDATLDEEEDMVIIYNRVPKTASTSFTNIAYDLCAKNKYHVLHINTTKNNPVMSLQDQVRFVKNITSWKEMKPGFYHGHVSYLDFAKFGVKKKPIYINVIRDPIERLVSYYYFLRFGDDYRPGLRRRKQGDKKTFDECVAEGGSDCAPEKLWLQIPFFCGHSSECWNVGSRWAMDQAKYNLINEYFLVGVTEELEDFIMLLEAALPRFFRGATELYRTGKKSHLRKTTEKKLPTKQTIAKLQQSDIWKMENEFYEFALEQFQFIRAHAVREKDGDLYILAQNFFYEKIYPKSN
UniProt P56937: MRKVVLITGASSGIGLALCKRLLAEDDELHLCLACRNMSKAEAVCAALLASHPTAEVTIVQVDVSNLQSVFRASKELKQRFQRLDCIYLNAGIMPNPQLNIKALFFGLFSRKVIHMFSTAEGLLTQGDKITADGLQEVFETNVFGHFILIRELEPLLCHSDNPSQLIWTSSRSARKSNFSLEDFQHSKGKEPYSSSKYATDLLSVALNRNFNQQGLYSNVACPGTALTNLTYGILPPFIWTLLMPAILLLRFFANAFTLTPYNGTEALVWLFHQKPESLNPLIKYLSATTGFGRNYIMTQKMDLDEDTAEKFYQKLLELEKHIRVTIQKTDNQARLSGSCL
UniProt Q8TCT9: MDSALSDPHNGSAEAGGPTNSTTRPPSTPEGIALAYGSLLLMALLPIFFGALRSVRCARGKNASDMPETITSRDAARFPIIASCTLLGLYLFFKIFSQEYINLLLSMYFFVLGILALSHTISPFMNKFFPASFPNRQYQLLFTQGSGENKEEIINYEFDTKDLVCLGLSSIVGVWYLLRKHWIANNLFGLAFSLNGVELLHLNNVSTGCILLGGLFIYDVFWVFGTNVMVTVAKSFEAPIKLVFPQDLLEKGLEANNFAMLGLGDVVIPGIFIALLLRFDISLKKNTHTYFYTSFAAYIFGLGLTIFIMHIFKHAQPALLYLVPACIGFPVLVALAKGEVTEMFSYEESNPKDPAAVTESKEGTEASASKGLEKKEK
UniProt P41252: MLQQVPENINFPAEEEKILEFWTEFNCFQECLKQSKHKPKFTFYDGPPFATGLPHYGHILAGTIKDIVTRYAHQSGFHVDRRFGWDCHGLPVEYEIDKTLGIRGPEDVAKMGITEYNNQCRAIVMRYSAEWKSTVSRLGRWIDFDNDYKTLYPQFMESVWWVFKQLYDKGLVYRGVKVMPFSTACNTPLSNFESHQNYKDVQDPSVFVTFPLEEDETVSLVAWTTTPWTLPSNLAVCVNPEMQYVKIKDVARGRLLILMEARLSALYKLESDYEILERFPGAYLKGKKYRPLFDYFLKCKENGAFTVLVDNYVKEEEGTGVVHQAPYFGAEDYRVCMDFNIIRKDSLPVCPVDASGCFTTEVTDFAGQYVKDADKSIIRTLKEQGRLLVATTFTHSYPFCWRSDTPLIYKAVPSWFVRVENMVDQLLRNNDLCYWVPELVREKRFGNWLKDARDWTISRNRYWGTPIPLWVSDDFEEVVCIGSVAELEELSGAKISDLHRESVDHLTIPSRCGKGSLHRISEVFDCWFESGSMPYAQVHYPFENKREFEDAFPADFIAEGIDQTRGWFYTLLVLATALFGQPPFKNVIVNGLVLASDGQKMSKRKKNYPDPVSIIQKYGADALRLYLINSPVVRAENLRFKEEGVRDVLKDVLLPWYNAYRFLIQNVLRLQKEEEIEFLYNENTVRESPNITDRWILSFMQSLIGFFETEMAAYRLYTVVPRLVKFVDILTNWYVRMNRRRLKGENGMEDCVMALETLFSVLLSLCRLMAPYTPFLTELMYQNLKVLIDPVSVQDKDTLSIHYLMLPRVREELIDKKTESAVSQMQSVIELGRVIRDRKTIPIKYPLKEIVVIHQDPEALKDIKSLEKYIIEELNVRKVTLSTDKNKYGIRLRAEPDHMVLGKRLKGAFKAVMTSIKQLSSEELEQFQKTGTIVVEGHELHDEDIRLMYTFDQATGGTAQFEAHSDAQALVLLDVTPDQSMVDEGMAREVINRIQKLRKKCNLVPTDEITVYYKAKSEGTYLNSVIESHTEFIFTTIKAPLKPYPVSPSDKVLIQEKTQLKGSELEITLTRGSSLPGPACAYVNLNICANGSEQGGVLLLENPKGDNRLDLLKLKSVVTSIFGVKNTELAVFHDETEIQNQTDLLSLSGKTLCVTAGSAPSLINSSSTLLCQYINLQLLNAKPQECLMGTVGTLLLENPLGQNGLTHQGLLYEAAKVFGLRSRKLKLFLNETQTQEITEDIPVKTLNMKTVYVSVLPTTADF
UniProt Q58FF7, whole entry, looked up: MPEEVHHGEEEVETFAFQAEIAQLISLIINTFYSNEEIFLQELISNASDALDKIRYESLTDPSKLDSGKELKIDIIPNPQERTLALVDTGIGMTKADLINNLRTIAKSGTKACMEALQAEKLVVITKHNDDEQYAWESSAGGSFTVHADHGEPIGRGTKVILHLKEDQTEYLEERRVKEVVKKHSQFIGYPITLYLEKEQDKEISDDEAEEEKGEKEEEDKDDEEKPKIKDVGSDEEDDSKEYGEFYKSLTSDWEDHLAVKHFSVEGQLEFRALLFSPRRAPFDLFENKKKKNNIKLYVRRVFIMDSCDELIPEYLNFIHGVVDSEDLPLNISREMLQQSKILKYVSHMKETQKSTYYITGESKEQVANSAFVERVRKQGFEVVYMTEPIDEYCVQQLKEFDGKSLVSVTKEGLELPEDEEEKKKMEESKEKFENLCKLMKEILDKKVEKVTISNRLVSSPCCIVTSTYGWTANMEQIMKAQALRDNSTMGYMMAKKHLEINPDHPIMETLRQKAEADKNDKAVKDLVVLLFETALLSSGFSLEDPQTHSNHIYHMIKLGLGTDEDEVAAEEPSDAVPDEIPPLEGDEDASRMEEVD
UniProt Q14773: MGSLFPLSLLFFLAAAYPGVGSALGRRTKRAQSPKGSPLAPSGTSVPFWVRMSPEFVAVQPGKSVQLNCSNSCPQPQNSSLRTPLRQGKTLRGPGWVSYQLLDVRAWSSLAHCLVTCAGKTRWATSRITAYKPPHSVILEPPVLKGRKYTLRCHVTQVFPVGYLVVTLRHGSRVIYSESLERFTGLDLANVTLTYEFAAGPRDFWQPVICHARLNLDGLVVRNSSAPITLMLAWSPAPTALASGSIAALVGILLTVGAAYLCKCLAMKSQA

Experiments:
Assay in all cases: log2 fold change, soluble protein after heating vs DMSO (PISA); higher = thermal stabilisation; K562 cells, 10 uM, 30 min; active = over 0.2 and 3.5 SD of the protein, either way, in both replicates (recomputed)
bafetinib = compound: Cc1ccc(NC(=O)c2ccc(CN3CC[C@H](N(C)C)C3)c(C(F)(F)F)c2)cc1Nc1nccc(-c2cncnc2)n1 [bafetinib]
Procedure, shortened: (§1)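 K562 cells at 2×10^6 cells/mL were exposed to 10 μM compound for 30 min, then aliquots were heated for 3 min across 48°C-58°C, pooled, and extracted in PBS containing 0.5% NP-40 at 4°C. The supernatant after 21,000xg for 90 min was taken as soluble protein and measured by TMTpro 16plex LC-MS/MS with channel sums equalised. Thermal stability is reported relative to control samples, with values from duplicates. Fold changes are given on a log2 scale.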

[1] = compound: Cc1cccc(CC(=O)N2CCc3c2ccc(-c2cn(C)c4ncnc(N)c24)c3F)n1
Procedure, shortened: as §1

nilotinib = compound: Cc1cn(-c2cc(NC(=O)c3ccc(C)c(Nc4nccc(-c5cccnc5)n4)c3)cc(C(F)(F)F)c2)cn1 [nilotinib]
Procedure, shortened: as §1

[2] = compound: Cc1nc(Nc2n[nH]c3c2CN(C(=O)N[C@H](CN(C)C)c2ccccc2)C3(C)C)c2sccc2n1
Procedure, shortened: as §1

dasatinib = compound: Cc1nc(Nc2ncc(C(=O)Nc3c(C)cccc3Cl)s2)cc(N2CCN(CCO)CC2)n1 [dasatinib]
Procedure, shortened: as §1

[3] = compound: Cc1ncc(-c2ccnc(Nc3ccc(S(C)(=O)=O)cc3)n2)n1C(C)C
Procedure, shortened: as §1

[4] = compound: Cn1cc(-c2ccc3c(c2)CCN3C(=O)Cc2cccc(C(F)(F)F)c2)c2c(N)ncnc21
Procedure, shortened: as §1

[5] = compound: Cn1cc(-c2ccc3nnc(C(F)(F)c4ccc5ncccc5c4)n3n2)cn1
Procedure, shortened: as §1

tipifarnib = compound: Cn1cncc1[C@@](N)(c1ccc(Cl)cc1)c1ccc2c(c1)c(-c1cccc(Cl)c1)cc(=O)n2C [tipifarnib]
Procedure, shortened: as §1

mubritinib = compound: FC(F)(F)c1ccc(/C=C/c2nc(COc3ccc(CCCCn4ccnn4)cc3)co2)cc1 [mubritinib]
Procedure, shortened: as §1

Target | log2 fold change (bafetinib) | log2 fold change [1] | log2 fold change (nilotinib) | log2 fold change [2] | log2 fold change (dasatinib) | log2 fold change [3] | log2 fold change [4] | log2 fold change [5] | log2 fold change (tipifarnib) | log2 fold change (mubritinib)
HMGB2 (UniProt P26583) | inactive: 0.011 | inactive: -0.072 | inactive: 0.07 | inactive: -0.008 | inactive: -0.009 | inactive: 0.042 | inactive: 0.047 | inactive: -0.011 | inactive: -0.061 | inactive: -0.013
HKDC1 (UniProt Q2TB90) | inactive: -0.11 | inactive: 0.019 | inactive: -0.171 | inactive: -0.056 | inactive: -0.036 | inactive: -0.028 | inactive: 0.019 | inactive: 0.032 | inactive: 0.037 | inactive: 0.107
HSD17B4 (UniProt P51659) | inactive: -0.017 | inactive: 0.015 | inactive: 0.007 | inactive: 0.004 | inactive: 0.045 | inactive: -0.012 | inactive: 0.033 | inactive: 0.009 | inactive: 0.009 | inactive: 0.176
HGS (UniProt O14964) | inactive: -0.063 | inactive: 0.011 | inactive: -0.01 | inactive: -0.032 | inactive: 0.034 | inactive: -0.018 | inactive: 0.026 | inactive: -0.01 | inactive: -0.015 | inactive: 0.061
HSD17B8 (UniProt Q92506) | inactive: -0.03 | inactive: -0.012 | inactive: -0.102 | inactive: 0.075 | inactive: 0.008 | inactive: -0.051 | inactive: 0.135 | inactive: 0.046 | inactive: 0.015 | inactive: 0.031
HNRNPDL (UniProt O14979) | inactive: 0.02 | inactive: -0.04 | inactive: -0.009 | inactive: 0.141 | inactive: 0.215 | inactive: 0.136 | inactive: -0.143 | inactive: -0.097 | inactive: 0.087 | inactive: -0.087
HNRNPA1 (UniProt P09651) | inactive: 0.159 | inactive: 0.01 | inactive: -0.053 | inactive: 0.106 | inactive: 0.233 | inactive: 0.16 | inactive: -0.277 | inactive: -0.133 | inactive: 0.083 | inactive: -0.208
HK1 isoform 2 (UniProt P19367) | inactive: -0.124 | inactive: 0.008 | inactive: -0.179 | inactive: -0.008 | inactive: -0.013 | inactive: -0.001 | inactive: 0.002 | inactive: 0.027 | inactive: 0.025 | inactive: 0.044
HSPG2 (UniProt P98160) | inactive: -0.024 | inactive: -0.022 | inactive: 0.033 | inactive: 0.005 | inactive: 0.027 | inactive: -0.048 | inactive: 0.008 | inactive: -0.085 | inactive: 0.193 | inactive: 0.008
HSPA13 (UniProt P48723) | inactive: -0.03 | inactive: 0.037 | inactive: -0.017 | inactive: 0.013 | inactive: -0.025 | inactive: -0.009 | inactive: 0.043 | inactive: -0.011 | inactive: -0.015 | inactive: -0.034
HPRT1 (UniProt P00492) | inactive: -0.035 | inactive: 0.024 | inactive: 0.018 | inactive: 0.023 | inactive: 0 | inactive: -0.007 | inactive: 0.016 | inactive: -0.008 | inactive: -0.039 | inactive: 0.011
HSD17B10 (UniProt Q99714) | inactive: 0.158 | inactive: 0.066 | inactive: -0.014 | inactive: -0.008 | inactive: 0.042 | inactive: -0.005 | inactive: 0.089 | inactive: 0 | inactive: -0.051 | inactive: 0.104
HMGN3 (UniProt Q15651) | inactive: -0.087 | inactive: -0.017 | inactive: 0.107 | inactive: 0.011 | inactive: 0.041 | inactive: 0.062 | inactive: -0.139 | inactive: -0.2 | inactive: 0.084 | inactive: -0.107
HIBADH (UniProt P31937) | inactive: -0.012 | inactive: -0.031 | inactive: 0.032 | inactive: 0.037 | inactive: 0.034 | inactive: -0.021 | inactive: 0.048 | inactive: 0.006 | inactive: 0.01 | inactive: -0.004
HHEX (UniProt Q03014) | inactive: -0.039 | inactive: -0.024 | inactive: -0.033 | inactive: -0.056 | inactive: 0.04 | inactive: 0.008 | inactive: 0.373 | inactive: 0.044 | inactive: -0.012 | inactive: 0.066
ICAM2 (UniProt P13598) | inactive: 0.076 | inactive: 0.007 | inactive: 0.113 | inactive: -0.043 | inactive: -0.071 | inactive: 0.04 | inactive: 0.087 | inactive: -0.026 | inactive: -0.027 | inactive: 0.011
HMOX2 (UniProt P30519) | inactive: 0.006 | inactive: 0.048 | inactive: 0.002 | inactive: -0.08 | inactive: -0.141 | inactive: -0.006 | inactive: 0.067 | inactive: 0.003 | active: 0.27 | inactive: 0.062
HINT2 (UniProt Q9BX68) | inactive: -0.015 | inactive: -0.061 | inactive: 0.086 | inactive: 0.012 | inactive: 0.086 | inactive: -0.103 | inactive: -0.024 | inactive: 0.266 | inactive: 0.105 | inactive: 0.061
HS2ST1 (UniProt Q7LGA3) | inactive: -0.067 | inactive: 0.061 | inactive: -0.006 | inactive: 0.028 | inactive: 0.03 | inactive: 0.02 | inactive: -0.031 | inactive: 0.029 | inactive: 0.039 | inactive: -0.049
HSD17B7 (UniProt P56937) | inactive: -0.039 | inactive: 0.02 | inactive: -0.025 | inactive: -0.038 | inactive: -0.064 | inactive: 0.013 | inactive: 0.021 | inactive: -0.008 | inactive: -0.066 | inactive: -0.041
HM13 isoform 2 (UniProt Q8TCT9) | inactive: -0.058 | inactive: -0.007 | inactive: -0.045 | inactive: 0.02 | inactive: 0.033 | inactive: -0.048 | inactive: -0.001 | inactive: 0.012 | inactive: 0.052 | inactive: 0.033
IBA57 (UniProt Q5T440) | inactive: 0.006 | inactive: -0.024 | inactive: -0.012 | inactive: 0.001 | inactive: -0.028 | inactive: -0.026 | inactive: 0.062 | inactive: -0.112 | inactive: 0.015 | inactive: 0.012
IARS (UniProt P41252) | inactive: 0.15 | inactive: 0 | inactive: -0.132 | inactive: -0.031 | inactive: 0 | inactive: 0.053 | inactive: -0.226 | inactive: -0.196 | inactive: 0.011 | inactive: -0.113
HSPB1 (UniProt P04792) | inactive: 0.023 | inactive: -0.003 | inactive: 0.092 | inactive: -0.115 | inactive: -0.043 | inactive: 0 | inactive: -0.044 | inactive: -0.055 | inactive: 0.003 | inactive: -0.029
HSP90AB3P (UniProt Q58FF7) | inactive: 0.038 | inactive: 0.166 | inactive: 0.052 | inactive: -0.095 | inactive: 0.049 | inactive: 0.124 | inactive: -0.016 | inactive: -0.007 | inactive: -0.195 | inactive: -0.059
HSDL2 (UniProt Q6YN16) | inactive: 0.048 | inactive: 0.029 | inactive: -0.007 | inactive: -0.043 | inactive: -0.15 | inactive: -0.013 | inactive: 0.057 | inactive: 0.011 | inactive: -0.086 | inactive: -0.043
ICAM4 (UniProt Q14773) | inactive: 0.002 | inactive: 0.116 | inactive: 0.012 | inactive: 0.027 | inactive: -0.05 | inactive: -0.018 | inactive: 0.012 | inactive: 0.013 | inactive: 0.053 | inactive: -0.034
HNRNPH2 (UniProt P55795) | inactive: 0.056 | inactive: 0.006 | inactive: -0.09 | inactive: -0.231 | inactive: -0.061 | inactive: -0.103 | inactive: -0.021 | inactive: 0.041 | inactive: -0.236 | inactive: -0.115
HSP90AA1 isoform 2 (UniProt P07900) | inactive: -0.007 | inactive: 0.022 | inactive: 0.058 | inactive: 0.017 | inactive: -0.054 | inactive: 0.011 | inactive: 0.028 | inactive: -0.021 | inactive: -0.032 | inactive: 0.044
ICAM1 (UniProt P05362) | inactive: 0.031 | inactive: -0.024 | inactive: 0.055 | inactive: 0.051 | inactive: -0.01 | inactive: -0.019 | inactive: 0.048 | inactive: -0.006 | inactive: 0.019 | inactive: 0.046

Quoted at random: 2 records from the list.
Target | log2 fold change (bafetinib) | log2 fold change [1] | log2 fold change (nilotinib) | log2 fold change [2] | log2 fold change (dasatinib) | log2 fold change [3] | log2 fold change [4] | log2 fold change [5] | log2 fold change (tipifarnib) | log2 fold change (mubritinib)
HNRNPDL (UniProt O14979) | inactive: 0.02 | inactive: -0.04 | inactive: -0.009 | inactive: 0.141 | inactive: 0.215 | inactive: 0.136 | inactive: -0.143 | inactive: -0.097 | inactive: 0.087 | inactive: -0.087
HSPG2 (UniProt P98160) | inactive: -0.024 | inactive: -0.022 | inactive: 0.033 | inactive: 0.005 | inactive: 0.027 | inactive: -0.048 | inactive: 0.008 | inactive: -0.085 | inactive: 0.193 | inactive: 0.008
